Record: PubChem BioAssay AID1159584 (Peter MacCallum Cancer Centre, 2016)

Aim: 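Genes whose loss is lethal only together with E-cadherin loss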 (primary screen)
System: human MCF10A breast epithelial cells, parental and CDH1-null
Reagent: siRNA against human genes
Measurement: 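Cell viability by CellTiter-Glo ATP luminescence, each line scaled to the mean of mock wells across plates, then CDH1-null over parental ratio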
Reading the numbers: CDH1-null / parental viability ratio: higher = CDH1-null cells survive relatively better than parental; CDH1-null viability vs mock: higher = more viable CDH1-null cells; parental viability vs mock: higher = more viable parental cells
The whole screen tested about 18,000 reagents; this is a random part of them. The record does not give: the amount of reagent, the time to read-out.

| target gene | CDH1-null / parental viability ratio | CDH1-null viability vs mock (fraction of mock) | parental viability vs mock (fraction of mock) |
| --- | --- | --- | --- |
| ANKRD55 (GeneID 79722) | 1.19 | 1.08 | 0.91 |
| TOMM34 (GeneID 10953) | 0.87 | 0.33 | 0.38 |
| POLN (GeneID 353497) | 1.09 | 1.02 | 0.94 |
| KRT1 (GeneID 3848) | 1.12 | 1.02 | 0.91 |
| CLSPN (GeneID 63967) | 1.24 | 0.68 | 0.55 |
| CCNC (GeneID 892) | 0.81 | 0.8 | 0.99 |
| CLEC1A (GeneID 51267) | 0.89 | 0.64 | 0.72 |
| CMIP (GeneID 80790) | 0.98 | 0.56 | 0.57 |
| TAS1R1 (GeneID 80835) | 1.21 | 0.92 | 0.76 |
| COL9A1 (GeneID 1297) | 0.56 | 0.4 | 0.71 |
| RAE1 (GeneID 8480) | 1.11 | 0.82 | 0.74 |
| SLC25A25 (GeneID 114789) | 1.11 | 1 | 0.9 |
| IP6K1 (GeneID 9807) | 1.05 | 0.88 | 0.84 |
| CLEC18C (GeneID 283971) | 1.15 | 0.9 | 0.78 |
| VTN (GeneID 7448) | 1.06 | 0.82 | 0.77 |
| CA2 (GeneID 760) | 0.91 | 0.78 | 0.86 |
| JRKL (GeneID 8690) | 1.05 | 0.98 | 0.93 |
| ZNF143 (GeneID 7702) | 1.23 | 1.13 | 0.92 |
| LOC402715 (GeneID 402715) | 1.01 | 0.82 | 0.81 |
| SPACA1 (GeneID 81833) | 0.98 | 0.85 | 0.87 |
| GNPDA2 (GeneID 132789) | 0.88 | 0.9 | 1.02 |
| VTI1B (GeneID 10490) | 1.07 | 0.86 | 0.8 |
| SLC66A2 (GeneID 80148) | 1.15 | 1.06 | 0.92 |
| DENND1C (GeneID 79958) | 0.85 | 0.58 | 0.68 |
| DEDD (GeneID 9191) | 1.17 | 1.01 | 0.86 |
| TBX22 (GeneID 50945) | 1.55 | 0.96 | 0.62 |
| ZNF74 (GeneID 7625) | 1.04 | 1.12 | 1.08 |
| DLGAP5 (GeneID 9787) | 1.27 | 0.99 | 0.78 |
| EIF3E (GeneID 3646) | 1.38 | 0.66 | 0.48 |
| DDX3Y (GeneID 8653) | 0.93 | 0.93 | 1 |
| LDHC (GeneID 3948) | 1.05 | 0.84 | 0.8 |
| C9orf50 (GeneID 375759) | 1 | 0.8 | 0.8 |
| GZF1 (GeneID 64412) | 1.05 | 0.84 | 0.8 |
| HP (GeneID 3240) | 1.14 | 0.64 | 0.56 |
| TLR10 (GeneID 81793) | 1.09 | 0.96 | 0.88 |
| CLK4 (GeneID 57396) | 1.07 | 0.88 | 0.82 |
| GNG7 (GeneID 2788) | 0.97 | 0.77 | 0.79 |
| MATR3 (GeneID 9782) | 1.12 | 0.92 | 0.82 |
| NEFH (GeneID 4744) | 0.94 | 0.77 | 0.82 |
| GNA11 (GeneID 2767) | 0.89 | 0.82 | 0.92 |
| OR5M9 (GeneID 390162) | 1.21 | 0.82 | 0.68 |
| UBALD2 (GeneID 283991) | 0.95 | 0.74 | 0.78 |
| PSMD13 (GeneID 5719) | 1.11 | 1 | 0.9 |
| NEK10 (GeneID 152110) | 0.84 | 0.65 | 0.77 |
| KCNV1 (GeneID 27012) | 0.96 | 0.94 | 0.98 |
| RSRC1 (GeneID 51319) | 1.09 | 0.38 | 0.35 |
| FFAR4 (GeneID 338557) | 0.74 | 0.7 | 0.95 |
| ZNF696 (GeneID 79943) | 1.02 | 1.01 | 0.99 |
| RPS17 (GeneID 6218) | 1.41 | 0.48 | 0.34 |
| SPNS3 (GeneID 201305) | 1.14 | 0.66 | 0.58 |
| DEFB131A (GeneID 644414) | 1.19 | 1.02 | 0.86 |
| ATG10 (GeneID 83734) | 1.01 | 0.69 | 0.68 |
| SLC25A27 (GeneID 9481) | 0.75 | 0.51 | 0.68 |
| GRIN1 (GeneID 2902) | 1.33 | 0.8 | 0.6 |
| KRT24 (GeneID 192666) | 1.11 | 0.94 | 0.85 |

Entries listed so far whose gene name starts with S or s:
| target gene | CDH1-null / parental viability ratio | CDH1-null viability vs mock (fraction of mock) | parental viability vs mock (fraction of mock) |
| --- | --- | --- | --- |
| SLC25A25 (GeneID 114789) | 1.11 | 1 | 0.9 |
| SPACA1 (GeneID 81833) | 0.98 | 0.85 | 0.87 |
| SLC66A2 (GeneID 80148) | 1.15 | 1.06 | 0.92 |
| SPNS3 (GeneID 201305) | 1.14 | 0.66 | 0.58 |
| SLC25A27 (GeneID 9481) | 0.75 | 0.51 | 0.68 |

Further records:
| target gene | CDH1-null / parental viability ratio | CDH1-null viability vs mock (fraction of mock) | parental viability vs mock (fraction of mock) |
| --- | --- | --- | --- |
| PSMB10 (GeneID 5699) | 1.44 | 0.56 | 0.39 |
| NFAT5 (GeneID 10725) | 0.94 | 0.5 | 0.53 |
| MBIP (GeneID 51562) | 1.62 | 0.47 | 0.29 |
| SNCB (GeneID 6620) | 0.96 | 0.88 | 0.92 |
| HUS1B (GeneID 135458) | 1.46 | 0.73 | 0.5 |
| TMEM125 (GeneID 128218) | 1.47 | 0.94 | 0.64 |
| SLC25A35 (GeneID 399512) | 1.12 | 1.1 | 0.98 |
| TM2D3 (GeneID 80213) | 0.64 | 0.68 | 1.06 |
| TBC1D14 (GeneID 57533) | 0.87 | 0.45 | 0.52 |
| BAD (GeneID 572) | 1.18 | 1.06 | 0.9 |
| AP3S1 (GeneID 1176) | 1.6 | 0.77 | 0.48 |
| WDR24 (GeneID 84219) | 1.01 | 0.95 | 0.94 |
| RERE (GeneID 473) | 0.64 | 0.62 | 0.97 |
| OR5K2 (GeneID 402135) | 0.78 | 0.6 | 0.77 |
| BCL2L11 (GeneID 10018) | 1.02 | 1.08 | 1.06 |
| ITGB3BP (GeneID 23421) | 1.15 | 1.15 | 1 |
| SLC25A48 (GeneID 153328) | 0.84 | 0.74 | 0.88 |
| RPL38 (GeneID 6169) | 1.06 | 0.34 | 0.32 |
| JADE3 (GeneID 9767) | 0.91 | 0.98 | 1.08 |
| DEFA3 (GeneID 1668) | 0.99 | 0.84 | 0.85 |
| CCDC141 (GeneID 285025) | 1.14 | 0.75 | 0.66 |
| RBM48 (GeneID 84060) | 0.96 | 0.92 | 0.96 |
| DNAH11 (GeneID 8701) | 0.93 | 0.82 | 0.88 |
| ATAD3A (GeneID 55210) | 1.25 | 0.55 | 0.44 |
| GPX8 (GeneID 493869) | 1.07 | 0.94 | 0.88 |
| MYEOV (GeneID 26579) | 1.46 | 0.7 | 0.48 |
| SLC16A9 (GeneID 220963) | 1.28 | 1 | 0.78 |
| FZD7 (GeneID 8324) | 0.78 | 0.66 | 0.85 |
| CWC22 (GeneID 57703) | 1 | 0.14 | 0.14 |
| MPV17L2 (GeneID 84769) | 1.51 | 0.83 | 0.55 |
| ATP7A (GeneID 538) | 0.94 | 0.66 | 0.7 |
| IFNA8 (GeneID 3445) | 0.85 | 0.53 | 0.62 |
